## Library screening results

A: 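Assay on Mycobacterium tuberculosis, filed only as a heat shock assay from Cornell; the read-out is not stated. The concentration is filed as 10 mM, unlikely as a test dose, so the dose is not known. Direction is inferred from retests: higher values go with stronger inhibition. Size under these conditions: about 69,000 compounds, about 930 of them at 50% or above in at least one test.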
B: 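Whole-cell assay for inhibitors of Mycobacterium tuberculosis growth, labelled Cornell in the record; the read-out is not stated. The concentration is filed as 10 mM, unlikely as a test dose, so the dose is not known. Higher means stronger inhibition (inferred from two other growth screens of the library). Size under these conditions: about 53,000 compounds, about 900 of them at 50% or above in at least one test.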

Each number is a percent effect as filed.
The controls that fix the scale are not given in the record; negative values are as filed.
The compounds are a random part of those screened.

Cc1ncccc1C(=O)NCc1ccccc1CN(C)Cc1ccco1 gave A: -13.19%; B: 21.8%.
COC1CCN(S(=O)(=O)N2CC(c3ccccc3)C(C)(C)C2)CC1 (configuration not stated) gave A: -8.729%; B: -15.09%.
O=C(O)C(F)(F)F.O=C(O)C(F)(F)F.O=C(O)C(F)(F)F.c1ccc(Cn2cc3c(n2)C(CNCc2ccco2)OCC3)nc1 (configuration not stated) gave A: 1.939%; B: 24.31%.
CC(C)C1CN(Cc2cnc(N(C)C)nc2)CCCN1CC1CC1 (configuration not stated) gave A: 2.976%; B: 14.56%.
c1ccc(-c2nnc(CN3CCCC3Cn3cncn3)o2)cc1 (configuration not stated) gave A: 5.125%.
Cc1ccc(-c2ncc(CNc3cnccc3CO)s2)cc1 gave A: -0.3082%; B: 19.79%.
CC(CNC(=O)Nc1ccc(C#N)cc1)N1CCc2ccccc21 (configuration not stated) gave A: -14.3%; B: 62.86%.
O=S(=O)(CCNCCn1cccn1)c1ccccc1 gave A: -12.9%; B: -11.03%.
CCOCCCC(=O)Nc1[nH]nc(-c2ccncc2)c1C gave A: 0.9945%; B: -39.07%.
Cc1cc(C)n(CC2CCCN2C(=O)c2cn[nH]c2C)n1 (configuration not stated) gave A: -6.463%.
Cc1nc(C2(O)CCCNCC2)sc1CCOc1ccc(F)c(F)c1.Cl (configuration not stated) gave A: -9.071%; B: -11.42%.
CC(C)(CN1CCC(Cc2ccc(C(=O)O)cc2)C1)N1CCOCC1 (configuration not stated) gave A: -30.16%; B: 14.81%.
Cc1ccc(CC2CCCN2CC(=O)NCc2cccnc2)cc1 (configuration not stated) gave A: -17.92%; B: 13.39%.
CC(C)CC(NC(=O)c1cccs1)c1nc2cccnc2n1C (configuration not stated) gave A: -1.944%; B: 16.26%.
COCCN(C)C(=O)Nc1ccc(C(=O)NCCC(=O)OC)cc1 gave A: 33.91%; B: -39.19%.
Cc1ccc(-n2cc(S(=O)(=O)Nc3cccc(C(=O)O)c3C)cn2)cc1 gave A: 0.2117%; B: 9.419%.
O=S(=O)(C1CC1)N1CCn2c(Cn3cncn3)cnc2C1 gave A: -23.59%; B: -19.51%.
NC(=O)C1CCN(Cn2nc(-c3ccc(F)cc3)oc2=O)CC1 gave A: -22.16%; B: -26.74%.
Cc1n[nH]c(C)c1C1CCCN1C(=O)Cc1cccc(F)c1 (configuration not stated) gave A: -6.048%; B: -19.15%.
Cc1ccc(C(=O)N2CCc3ccc(=O)n(CCN(C)C)c3CC2)o1.O=C(O)C(F)(F)F gave A: -16.57%.
Cn1cc(C(O)CNC(=O)c2sccc2OC(F)F)cn1 (configuration not stated) gave A: 0.6033%; B: -18.19%.
CCNc1ccnc(NCc2cn3nc(C)sc3n2)n1 gave A: -19.29%; B: 20.31%.
COCc1cc(N2C[C@@H](C)[C@](O)(C3CC3)C2)ncn1 gave A: -3.121%; B: 9.206%.
COc1ccnc(NC(=O)c2cscn2)c1 gave A: -2.876%; B: 5.849%.
CCc1nnc(NC(=O)c2ccc(C3CCCN3CC(C)C)s2)s1 (configuration not stated) gave A: 6.73%.
COCCC1COC2(CCN(C(=O)C3CCCCC3)CC2)C1 (configuration not stated) gave A: -13.99%; B: 7.561%.
COCCN(Cc1ccoc1)C(=O)c1ccccn1 gave A: -27.58%.
O=C(O)C(F)(F)F.O=C(O)C(F)(F)F.[H][C@@]12CCCO[C@]1([H])[C@@H](OCc1csc(C)n1)CN2Cc1ccccn1 gave A: -21.3%.
O=C(NCCn1nc2ccccn2c1=O)c1cc(C2CC2)[nH]n1 gave A: -12.58%; B: 3.427%.
Cl.c1csc(-c2noc(C3CNC3)n2)c1 gave A: 3.28%; B: 106.9%.

The first 3 entries again:

structure,A,B
Cc1ncccc1C(=O)NCc1ccccc1CN(C)Cc1ccco1,-13.19,21.8
COC1CCN(S(=O)(=O)N2CC(c3ccccc3)C(C)(C)C2)CC1 (configuration not stated),-8.729,-15.09
O=C(O)C(F)(F)F.O=C(O)C(F)(F)F.O=C(O)C(F)(F)F.c1ccc(Cn2cc3c(n2)C(CNCc2ccco2)OCC3)nc1 (configuration not stated),1.939,24.31

Data taken from ChEMBL document CHEMBL3988442, “University of Dundee, Small-Polar-MMV Screening Library” (2021).